{"source": "patent US20070020234A1", "about": "“Inhibition of tumor angiogenesis by combination of thrombospondin-1 and inhibitors of vascular endothelial growth factor” (priority 2003, published 2007)", "type_in_all_cases": "cell-based, human", "key": {"Akt": {"system": "Akt", "test": "Western blot of Akt activation after HGF/SF stimulation", "conditions": "SK-LMS-1 and MDA-MB-231 cells; LY294002 40 μM 1 hour, then HGF/SF 15 minutes"}, "VEGF expression": {"system": "VEGF expression", "test": "Northern blot of VEGF expression", "conditions": "SK-LMS-1 and MDA-MB-231 cells (FIGS. 2B/1, 2B/2)", "procedure": "(§1) FIG. 1A-1C. HGF/SF up-regulates VEGF and down-regulates TSP-1 expression in SK-LMS-1 cells (FIG. 1A) and MDA-MB-231 cells (FIG. 1B) and HUVEC cells (FIG. 1C). Total RNAs were prepared from SK-LMS-1 cells, MDA-MB-231 cells or HUVEC with or without treatment of recombinant human HGF/SF (200 units/ml) at the indicated time points after stimulation. Total RNAs were also prepared from the SK/HGF cell line, a long-term culture derivative of SK-LMS-1 cells that is autocrine for human HGF/SF (15). Northern Blot was probed with ^32P-radiolabeled TSP-1, VEGF or G3PDH cDNA fragment, respectively. […]\n(§2) FIG. 2A: HGF/SF induces activation of MAP kinase and PI3 kinase pathways in SK-LMS-1 cells and MDA-MB-231 cells. […] Whole cell extracts were prepared and the state of Met phosphorylation was detected by immunoprecipitation with anti-human Met antibody, followed by Western blot with anti-Phosphotyrosine (and/or anti-human Met antibody). […]\n(§3) HGF/SF, acting through its tyrosine kinase receptor, Met, is known to activate several intracellular signaling pathways, including MAP kinase, PI3 kinase and Stat3 (1, 16). […] RNA samples from SK-LMS-1 and MDA-MB-231 cells treated with individual inhibitors followed by HGF/SF treatment for 24 hours were analyzed by Northern Blot analyses. […]"}, "TSP-1 expression": {"system": "TSP-1 expression", "test": "Northern blot of TSP-1 expression", "conditions": "SK-LMS-1 and MDA-MB-231 cells; inhibitor followed by HGF/SF for 24 hours", "procedure": "as §1, §2, §3"}}, "note": "“Also recorded” adds a separate entry of the source. At least one structure is not confirmed: it was looked up by name or label, or the drawing left a doubt.", "data": [{"molecule": "O=c1cc(N2CCOCC2)oc2c(-c3ccccc3)cccc12", "note": "[LY294002]", "values": [{"measurement": "Akt activation in response to HGF/SF", "setting": "Akt", "result": "blocked Akt activation"}, {"measurement": "VEGF expression (up-regulation by HGF/SF)", "setting": "VEGF expression", "result": "suppressed; also recorded: inhibited"}, {"measurement": "HGF/SF-induced shut off (down-regulation) of TSP-1", "setting": "TSP-1 expression", "result": "not affected"}]}]}
